Source: patent US12055536B2, “Device for detection of cellular stress” (Trustees of Boston University, priority 2021, dated 2024)

Experiments:
Experiment in all cases: Isotope labeling and SRS imaging
Type in all cases: cell-based, human
COV362-cisR cells = conditions: C-D signal out of total cellular area, mean
COV362 cells = conditions: C-D signal out of total cellular area, mean
PEO1 cells = conditions: PE01 cells, C-D signal out of total cellular area, mean
SKOV3-cisR cells = conditions: C-D signal out of total cellular area, mean
Description: (§1) For labeling with glucose-d7, media was replaced with glucose-free DMEM medium (Thermo Fisher Scientific, #11966025)+10% FBS+P/S supplemented with 25 mM glucose-d7 after seeding the cells in 35 mm glass-bottom dishes overnight. For labeling with FA or analogs, including PA-d31, OA-d34, and ODYA, FA or analogs were added to the culture media at final concentration of 100 μM and cells were treated for 6 h. For quantitative SRS imaging, cells on glass-bottom dishes were fixed with 10% neutral buffered formalin for 30 min and washed with PBS for 3 times. Hyperspectral SRS imaging was performed to the cells at Raman spectral region from 2100 to 2300 cm^−1.
(§2) To identify the source of increased lipid content in cisplatin-resistant ovarian cancer cells, the contribution of de novo lipogenesis and of fatty acid uptake were examined, respectively. Using a stable isotope probing method, the level of lipogenesis was examined by feeding the cells with deuterium labeled glucose-d7. Newly synthesized macromolecules (mostly lipids) were imaged by hyperspectral SRS microscopy at Raman shift from 2050 cm^−1 to 2350 cm^−1, covering the vibrational frequencies of C-D bonds. […] Quantitative analysis confirmed significant reduction of both signal intensity and relative area fraction in PEO4 cells when compared to PEO1 cells (FIG. 2B), indicating a decrease in glucose derived anabolism and de novo lipogenesis in cisplatin-resistant cells. Using a similar approach, the fatty acid uptake was examined by hyperspectral SRS imaging at C-D vibrational frequencies in cells fed with deuterium labeled palmitic acid-d31 (PA-d31). In contrast to glucose-d7 fed cells, C-D signal in PA-d31 fed PEO4 cells was stronger than PEO1 cells (FIG. 2C). […] In addition to saturated FA (PA-d31), the uptake of an unsaturated fatty acid, oleic acid-d34 (OA-d34) was tested.
(§3) Having shown decreased glucose-derived anabolism and increased fatty acid uptake in cisplatin-resistant ovarian cancer cells, whether this metabolic feature can be used for differentiation of cisplatin-resistant from cisplatin-sensitive cancer cells was explored. […] In Table 2 below, quantitation of glucose-d7 (G-d7), PA-d31, and OA-d34 are shown as area fraction of C-D signal out of total cellular area, in mean values.

OVCAR5-cisR cells = conditions: C-D signal out of total cellular area, mean
Description: as §1, §2, §3

OVCAR5 cells = conditions: C-D signal out of total cellular area, mean
PEO4 cells = conditions: PE04 cells, C-D signal out of total cellular area, mean
SKOV3 cells = conditions: C-D signal out of total cellular area, mean

Structure (SMILES): [2H]C(=O)[C@]([2H])(O)[C@@]([2H])(O)[C@]([2H])(O)[C@]([2H])(O)C([2H])([2H])O [G-d7, glucose-d7]
- Intensity (area fraction (%)) G-d7 (COV362-cisR cells; fed with glucose-d7 for 3 days): 2.03%
- Intensity (area fraction (%)) G-d7 (COV362 cells; fed with glucose-d7 for 3 days): 3.14%
- Intensity (area fraction (%)) G-d7 (PEO1 cells; fed with glucose-d7 for 3 days): 3.88%
- Intensity (area fraction (%)) G-d7 (SKOV3-cisR cells; fed with glucose-d7 for 3 days): 0.84%
- Intensity (area fraction (%)) G-d7 (OVCAR5-cisR cells; fed with glucose-d7 for 3 days): 2.51%
- Intensity (area fraction (%)) G-d7 (OVCAR5 cells; fed with glucose-d7 for 3 days): 3.64%
- Intensity (area fraction (%)) G-d7 (PEO4 cells; fed with glucose-d7 for 3 days): 0.93%
- Intensity (area fraction (%)) G-d7 (SKOV3 cells; fed with glucose-d7 for 3 days): 3.39%

Structure (SMILES): [2H]OC(=O)C([2H])([2H])C([2H])([2H])C([2H])([2H])C([2H])([2H])C([2H])([2H])C([2H])([2H])C([2H])([2H])/C([2H])=C(/[2H])C([2H])([2H])C([2H])([2H])C([2H])([2H])C([2H])([2H])C([2H])([2H])C([2H])([2H])C([2H])([2H])C([2H])([2H])[2H] [OA-d34, oleic acid-d34]
- Intensity (area fraction (%)) OA-d34 (COV362-cisR cells; fed with OA-d34 100 μM for 6 h): 41.43%
- Intensity (area fraction (%)) OA-d34 (COV362 cells; fed with OA-d34 100 μM for 6 h): 31.00%
- Intensity (area fraction (%)) OA-d34 (PEO1 cells; fed with OA-d34 100 μM for 6 h): 17.25%
- Intensity (area fraction (%)) OA-d34 (SKOV3-cisR cells; fed with OA-d34 100 μM for 6 h): 10.97%
- Intensity (area fraction (%)) OA-d34 (OVCAR5-cisR cells; fed with OA-d34 100 μM for 6 h): 23.28%
- Intensity (area fraction (%)) OA-d34 (OVCAR5 cells; fed with OA-d34 100 μM for 6 h): 18.35%
- Intensity (area fraction (%)) OA-d34 (PEO4 cells; fed with OA-d34 100 μM for 6 h): 21.61%
- Intensity (area fraction (%)) OA-d34 (SKOV3 cells; fed with OA-d34 100 μM for 6 h): 6.24%

Structure (SMILES): [2H]C([2H])([2H])C([2H])([2H])C([2H])([2H])C([2H])([2H])C([2H])([2H])C([2H])([2H])C([2H])([2H])C([2H])([2H])C([2H])([2H])C([2H])([2H])C([2H])([2H])C([2H])([2H])C([2H])([2H])C([2H])([2H])C([2H])([2H])C(=O)O [PA-d31, palmitic acid-d31]
- Intensity (area fraction (%)) PA-d31 (COV362-cisR cells; fed with PA-d31 100 μM for 6 h): 14.88%
- Intensity (area fraction (%)) PA-d31 (COV362 cells; fed with PA-d31 100 μM for 6 h): 4.44%
